How the values were obtained:
Candida albicans = test: Antimicrobial activity against Candida albicans 3471 at 128 ug/disc at 37 degC after 24 to 72 hrs by agar-well diffusion assay; assay type: functional
Method in brief: (§1)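 Potato dextrose agar base plates overlaid with seeded agar cooled to 40 °C and inoculated with spores from 10-day cultures, final 1 × 10⁶ spores/mL. Compounds dissolved in DMSO at 128 µg/mL and applied on 6 mm filter-paper discs placed on chilled seeded medium. Nystatin positive control, DMSO negative control. Incubation 24–72 h at 37 °C. Inhibition zone diameter read by vernier caliper.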

Aspergillus niger = test: Antimicrobial activity against Aspergillus niger 545 at 128 ug/disc at 37 degC after 24 to 72 hrs by agar-well diffusion assay; assay type: functional; method in brief: as §1

NYSTATIN
inhibition zone (IZ) (Candida albicans): 22 mm
inhibition zone (IZ) (Aspergillus niger): 20.3 mm

— ChEMBL document CHEMBL2021913, “Synthesis and biological evaluation of some novel thiazole substituted benzotriazole derivatives” (2012)
